Patent publication US10149881B2, “Method for treating inflammatory, allergic or asthma diseases, containing paprika extracts” (priority 2010, dated 2018)
For at least one compound, name, drawing or mass did not settle the structure.

Columns and labels:
[1] = tested on: immune cells in bronchial alveolar lavage fluid; assay: Number of immune cells in bronchial alveolar lavage fluid, OVA asthma mouse model; assay type: in vivo, BALB/c mice; conditions: FIG. 8
[2] = tested on: immunoglobulin-E (IgE); assay: Measurement of blood immunoglobulin E (IgE) level, OVA asthma mouse model; assay type: in vivo, mice; conditions: FIG. 13
Method: When asthma in mice is induced using OVA, the immunoglobulin-E (IgE) among the blood antibody levels of the mice increases in proportion to the severity of asthma. Based on this principle, the paprika extract obtained according to the method of Example 1 was named “sample SP526”, and the blood immunoglobulin-E (IgE) level of the mice was measured. Also, the level of immunoglobulin-E (IgE) was measured.

[3] = tested on: IgG1; assay: Analysis of IgG1, OVA asthma mouse model; assay type: in vivo, mice; conditions: blood; FIG. 11, FIG. 14
Method: Meanwhile, immunoglobulin IgG2a is produced by activation of Th1 cells, and the activity of Th1 cells reduces the level of IgG1 which is increased by the activity of Th2 cells. Thus, IgG1 and IgG2a were analyzed.

[4] = tested on: infiltration of immune cells; assay: Immune cell infiltration, comparison with luteolin in asthma model; assay type: in vivo, mice; conditions: FIG. 12
Method: In order to examine whether the asthma inhibitory effect of the paprika extract of the present invention is attributable to a combination of components or a specific component alone, the following test was carried out. Specifically, the immune cell infiltration of luteolin was examined.

CCCC1O[C@@H]2C[C@H]3[C@@H]4CCC5=CC(=O)C=C[C@]5(C)[C@H]4[C@@H](O)C[C@]3(C)[C@]2(C(=O)CO)O1 (stereo partly shown) [budesonide]
immune cell number (collective result) [1]: normal immune cell number | effect on blood immunoglobulin-E levels [2]: did not reduce | expression of IgG1 [3]: did not increase | infiltration of immune cells [4]: inhibited the infiltration of immune cells
